According to US8937152B2 (Italfarmaco SpA, priority 2007, dated 2015):

Test: general procedure: Fmoc solid-phase peptide synthesis; Fmoc-Lys(Boc)-Trt(Cl)-DVB; HATU; DPPA/DIPEA for cyclisation in solution
Details: whole synthesis

| Substance | final HPLC purity |
| --- | --- |
| PEPTIDE1{[Ser(Bn)].F.[Pro(4-OCONHC2H4NH2)].F.[3,8MNal].K}$PEPTIDE1,PEPTIDE1,1:R1-6:R2$$$V2.0 | 98.2% |
| PEPTIDE1{[Tyr(Bn)].F.[Pro(4-OCONHC2H4NH2)].F.[2,5MhPhe].K}$PEPTIDE1,PEPTIDE1,1:R1-6:R2$$$V2.0 | 99.0% |
| PEPTIDE1{[Tyr(Bn)].F.[Pro(4-OCONHC2H4NH2)].F.[3,8MNal].K}$PEPTIDE1,PEPTIDE1,1:R1-6:R2$$$V2.0 | 99.1% |
| PEPTIDE1{[Tyr(Bn)].F.[Pro(4-OCONHC2H4NH2)].Y.[3,8MNal].K}$PEPTIDE1,PEPTIDE1,1:R1-6:R2$$$V2.0 | 95.4% |
| PEPTIDE1{[Tyr(Bn)].F.[Pro(4-OCONHC2H4NHMe)].F.[3,8MNal].K}$PEPTIDE1,PEPTIDE1,1:R1-6:R2$$$V2.0 | 94.5% |
| cyclo[Tyr(Bn)-Phe-Pro (4-OCONH(CH2)2NH2)-Phe-(D)Nal-Lys] | 99.5% |
| cyclo[Tyr(Bn)-Phe-Pro (4-OCONH(CH2)2NHCH3)-Phg-(D) Sty-Lys] | 97.8% |
| cyclo[Tyr(Bn)-Phe-Pro(4-OCONH(CH2)2NH2)-Phe-(D)hPhe-Lys] | 94.5% |
| cyclo[Tyr(Bn)-Phe-Pro(4-OCONH(CH2)2NH2)-Phe-(D,L)1,4-MNal-Lys] isomer A | 80.6% |
| cyclo[Tyr(Bn)-Phe-Pro(4-OCONH(CH2)2NH2)-Phe-(D,L)1,4-MNal-Lys] isomer B | 97.7% |
| cyclo[Tyr(Bn)-Phe-Pro(4-OCONH(CH2)2NH2)-Phg-(D)hPhe-Lys] | 98.8% |

Some peptides are written in HELM: one residue between dots, names in brackets for other building blocks, links after the first $.
